Results taken from publication doi:10.1101/2020.09.24.311712.

Protein sequences, listed by entry. Tags and fused reporters are not part of them. Lines headed by an entry give the natural chain unless they say otherwise; changes in a name come on top.
UniProt O43474: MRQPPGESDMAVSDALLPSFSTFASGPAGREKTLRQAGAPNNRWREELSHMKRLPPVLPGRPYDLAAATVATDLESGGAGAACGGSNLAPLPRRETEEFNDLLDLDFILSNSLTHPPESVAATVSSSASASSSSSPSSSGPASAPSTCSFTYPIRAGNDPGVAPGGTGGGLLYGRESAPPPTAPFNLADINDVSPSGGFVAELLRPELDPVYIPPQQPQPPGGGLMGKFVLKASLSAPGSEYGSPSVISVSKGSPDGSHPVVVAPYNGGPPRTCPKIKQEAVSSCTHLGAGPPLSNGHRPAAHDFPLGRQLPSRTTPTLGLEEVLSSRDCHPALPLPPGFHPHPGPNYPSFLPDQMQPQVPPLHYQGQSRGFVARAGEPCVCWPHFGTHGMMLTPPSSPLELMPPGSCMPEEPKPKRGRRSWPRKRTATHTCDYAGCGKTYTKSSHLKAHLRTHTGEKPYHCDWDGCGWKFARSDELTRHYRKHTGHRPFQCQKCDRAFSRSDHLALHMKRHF

Assays:
[1] = target: MBP-Klf4-GFP (Homo sapiens) (UniProt O43474); assay: EMSA; conditions: poly-d(IC) 37.5 ng, Kd value not in material
Klf4-GFP (Homo sapiens) = Klf4-GFP (Homo sapiens) (UniProt O43474); assay: EMSA; conditions: poly-d(IC) 37.5 ng, Kd value not in material

CCGCTCTCGGATCGGGC (double strand) [Klf4 unspecific dsDNA EMSA]
binding result [1]: binds more weakly
binding result (Klf4-GFP (Homo sapiens)): binds more weakly

For at least one entry, the source does not settle the construct or the ends of the probe. Weaker means in comparison with the reference protein, sequence or condition of that experiment. At least one verdict rests on a figure or table, not on a statement of the authors.
